Experimental data reported in patent US12002595B2, “Separation of metal ions by liquid-liquid extraction” (priority 2016, dated 2024).

Legend:
[1] = Extraction of plutonium(IV) by HDEHP as a function of pH with hold-back reagent; settings: 40 mM hold-back reagent, 0.5 M HDEHP
Method: All liquid-liquid extractions were conducted using a 1:1 organic to aqueous phase ratio for a total volume of 1 mL. Samples were pH adjusted by HNO3 and prepared for a final concentration of 1.0 M sodium lactate, 40 mM of hold-back reagent (160 mM in the case of the HOPO monomer), and 2.0 M Na^+. The concentration of the trivalent f-element was dependent on the availability and radioactivity of the isotopes. The organic phase consisted of 0.5 M HDEHP in kerosene. All samples were incubated in a thermostatic shaker held at 28° C. and rocked at 280 rpm for 90 minutes. To ensure complete phase separation, samples were left overnight at room temperature to equilibrate. Radioactive samples were analyzed by liquid scintillation counting (LSC). The analytical protocol consisted of diluting 10 uL of radioactive sample into 10 mL of Ultima Gold™. Ultima Gold™ is a commercially available analytical reagent commonly used for LSC. The resulting analytical samples were shaken for 10 min prior to counting on a Perkin-Elmer Packard Tri-Carb instrument (model B4430).
Data was analyzed by the distribution ratio (Dm), separation factor (SFm1/m2) and extraction percentage (% Extraction) as defined by Equations (6), (7) and (8), respectively. Equation (8) uses concentrations of the metal in each phase since the aqueous: organic ratio was 1. Both the organic and aqueous phases were analyzed after liquid-liquid extraction and phase separation. These calculation methods rely on the assumptions that no metal (M) is lost to sorption or precipitation and that no volume variation occurred during the mass transfer between the aqueous and organic phases.
In FIG. 18, aqueous phase: [ligand]=40 mM, buffer sodium lactate/sodium nitrate, organic phase: [HDEHP]=0.5 M, kerosene diluent. T=25° C. O/A=1, one contact. Initial metal concentrations: [Pu-242]=5 μM. Phases analyzed after one contact. Contact time: 30 min. Limit of detection: 0.03% of the initial Pu-242 activity. Data for separation of tetravalent metal ions from trivalent metal ions using 3,4,3-LI(1,2-HOPO) as a hold-back reagent for tetravalent metal ions are shown in TABLE 0.1.

[2] = Extraction by HDEHP at constant pH with 3,4,3-LI(1,2-HOPO) as hold-back reagent; settings: 1 mM ligand, 0.1 M HNO3/1.9 M NaNO3
Method: (§1) In FIG. 26, aqueous phase: [ligand]=1 mM, buffer 0.1 M HNO3/1.9 M NaNO3. Organic phase: HDEHP diluted in kerosene. [HDEHP]=0.05, 0.10, 0.25, 0.50, 1.0, or 2.0 M. T=25° C. Volume organic phase/Volume aqueous phase=1. Initial metal concentrations: [Pu-242]=10 μM, [Am-243]=0.25 μM, or [Gd-153]=0.16 nM. Phases analyzed after one contact. Contact time: 30 min.
The separation factor values given here must been seen as lower limit since the extraction of Pu(IV) is near zero.
In FIG. 28, aqueous phase: [ligand]=1 mM, buffer 0.1 M HNO3/1.9 M NaNO3. Organic phase: HDEHP diluted in kerosene. [HDEHP]=0.05, 0.10, 0.25, 0.50, 1.0, or 2.0 M. T=25° C. Volume organic phase/Volume aqueous phase=1. Initial metal concentrations: [Am-243]=0.25 μM, or [Gd-153]=0.16 nM. Phases analyzed after one contact. Contact time: 30 min. Corresponding separation factors (SF) are given on the right Y-axis. SF Gd/Am=Ratio [Gd]/[Am] in the final organic phase/Ratio [Gd]/[Am] in the initial aqueous solution.

[3] = as above; settings: 1 mM ligand, 0.1 M HNO3/1.9 M NaNO3; remark: listed apart in the source
Method: as §1
The separation factor values given here must been seen as lower limit since the extraction of Pu(IV) is near zero. […]

[4] = Separation of ^249Bk and ^249Cf at the mCi level using TODGA and 343HOPO
[5] = Aqueous phase, O/A = 0.5, [343HOPO] = 1 mM
[6] = Aqueous phase, O/A = 1.0, [343HOPO] = 1 mM
[7] = Aqueous phase, O/A = 1.0, [343HOPO] = 5 mM
[8] = Aqueous phase, O/A = 1.0, [343HOPO] = 25 mM
[9] = Aqueous phase, O/A = 2.0, [343HOPO] = 1 mM
[10] = Organic phase, O/A = 0.5, [343HOPO] = 1 mM
[11] = Organic phase, O/A = 1.0, [343HOPO] = 1 mM
[12] = Organic phase, O/A = 1.0, [343HOPO] = 5 mM
[13] = Organic phase, O/A = 1.0, [343HOPO] = 25 mM
[14] = Organic phase, O/A = 2.0, [343HOPO] = 1 mM

O=C(NCCCN(CCCCN(CCCNC(=O)c1cccc(=O)n1O)C(=O)c1cccc(=O)n1O)C(=O)c1cccc(=O)n1O)c1cccc(=O)n1O [3,4,3-LI(1,2-HOPO)]
Activity in aqueous phase (cpm) ([1]; pH 0.25): 2791 cpm
Activity in organic phase (cpm) ([1]; pH 0.25): 0 cpm
Activity in aqueous phase (cpm) ([1]; pH 0.85): 3325 cpm
Activity in organic phase (cpm) ([1]; pH 0.85): 0 cpm
Activity in aqueous phase (cpm) ([1]; pH 1.78): 3310 cpm
Activity in organic phase (cpm) ([1]; pH 1.78): 0 cpm
Activity in aqueous phase (cpm) ([1]; pH 2.71): 3219 cpm
Activity in organic phase (cpm) ([1]; pH 2.71): 0 cpm
Activity in aqueous phase (cpm) ([1]; pH 2.87): 3339 cpm
Activity in organic phase (cpm) ([1]; pH 2.87): 0 cpm
Activity in aqueous phase (cpm) ([1]; pH 3.62): 3185 cpm
Activity in organic phase (cpm) ([1]; pH 3.62): 0 cpm
Activity in aqueous phase (cpm) ([1]; pH 4.52): 2896 cpm
Activity in organic phase (cpm) ([1]; pH 4.52): 0 cpm
Activity in aqueous phase (cpm) ([2]; HDEHP 0.05 M): 2326 cpm
Activity in organic phase (cpm) ([2]; HDEHP 0.05 M): 5 cpm
Activity in aqueous phase (cpm) ([2]; HDEHP 0.10 M): 2237 cpm
Activity in organic phase (cpm) ([2]; HDEHP 0.10 M): 30 cpm
Activity in aqueous phase (cpm) ([2]; HDEHP 0.25 M): 2195 cpm
Activity in organic phase (cpm) ([2]; HDEHP 0.25 M): 246 cpm
Activity in aqueous phase (cpm) ([2]; HDEHP 0.50 M): 1693 cpm
Activity in organic phase (cpm) ([2]; HDEHP 0.50 M): 735 cpm
Activity in aqueous phase (cpm) ([2]; HDEHP 1.00 M): 1297 cpm
Activity in organic phase (cpm) ([2]; HDEHP 1.00 M): 1296 cpm
Activity in aqueous phase (cpm) ([2]; HDEHP 2.00 M): 952 cpm
Activity in organic phase (cpm) ([2]; HDEHP 2.00 M): 1277 cpm
Activity in aqueous phase (cpm) ([3]; HDEHP 0.05 M): 48361 cpm
Activity in organic phase (cpm) ([3]; HDEHP 0.05 M): 2505 cpm
Activity in aqueous phase (cpm) ([3]; HDEHP 0.10 M): 38983 cpm
Activity in organic phase (cpm) ([3]; HDEHP 0.10 M): 12170 cpm
Activity in aqueous phase (cpm) ([3]; HDEHP 0.25 M): 14376 cpm
Activity in organic phase (cpm) ([3]; HDEHP 0.25 M): 40716 cpm
Activity in aqueous phase (cpm) ([3]; HDEHP 0.50 M): 4362 cpm
Activity in organic phase (cpm) ([3]; HDEHP 0.50 M): 51171 cpm
Activity in aqueous phase (cpm) ([3]; HDEHP 1.00 M): 1207 cpm
Activity in organic phase (cpm) ([3]; HDEHP 1.00 M): 55033 cpm
Activity in aqueous phase (cpm) ([3]; HDEHP 2.00 M): 419 cpm
Activity in organic phase (cpm) ([3]; HDEHP 2.00 M): 56084 cpm
Chemical purity, Bk [4, 5]: Bk: >99.8%
Radiopurity, Bk [4, 5]: Bk: >99.999%
Chemical purity, Bk [4, 6]: Bk: >99.8%
Radiopurity, Bk [4, 6]: Bk: >99.999%
Chemical purity, Bk [4, 7]: Bk: >99.8%
Radiopurity, Bk [4, 7]: Bk: >99.999%
Chemical purity, Bk [4, 8]: Bk: >99.8%
Radiopurity, Bk [4, 8]: Bk: >99.999%
Chemical purity, Bk [4, 9]: Bk: >99.8%
Radiopurity, Bk [4, 9]: Bk: >99.999%
Chemical purity, Cf [4, 10]: Cf: 99.71%
Radiopurity, Bk [4, 10]: Bk: 52.70%
Radiopurity, Cf [4, 10]: Cf: 47.30%
Chemical purity, Cf [4, 11]: Cf: 99.5%
Radiopurity, Bk [4, 11]: Bk: 64.85%
Radiopurity, Cf [4, 11]: Cf: 35.15%
Chemical purity, Cf [4, 12]: Cf: 99.0%
Radiopurity, Bk [4, 12]: Bk: 79.72%
Radiopurity, Cf [4, 12]: Cf: 20.28%
Chemical purity, Cf [4, 13]: Cf: 98.6%
Radiopurity, Bk [4, 13]: Bk: 84.94%
Radiopurity, Cf [4, 13]: Cf: 15.06%
Chemical purity, Cf [4, 14]: Cf: 99.4%
Radiopurity, Bk [4, 14]: Bk: 70.60%
Radiopurity, Cf [4, 14]: Cf: 29.40%
chemical purity of ^249Bk in the aqueous phase ([4]; single step, 3 M HNO3, TODGA): > 99.8%
chemical purity of ^249Cf in the organic phase ([4]; single step, 3 M HNO3, TODGA): > 99.5%
radiopurity of ^249Bk recovered in the aqueous phase ([4]; single step, 3 M HNO3, TODGA): > 99.999%

O=C(O)CN(CCN(CC(=O)O)CC(=O)O)CCN(CC(=O)O)CC(=O)O [DTPA, Diethylenetriaminepentaacetic acid, reference compound]
Activity in aqueous phase (cpm) ([1]; pH 0.40): 209 cpm
Activity in organic phase (cpm) ([1]; pH 0.40): 4181 cpm
Activity in aqueous phase (cpm) ([1]; pH 1.27): 2585 cpm
Activity in organic phase (cpm) ([1]; pH 1.27): 110 cpm
Activity in aqueous phase (cpm) ([1]; pH 1.84): 2951 cpm
Activity in organic phase (cpm) ([1]; pH 1.84): 35 cpm
Activity in aqueous phase (cpm) ([1]; pH 2.55): 2995 cpm
Activity in organic phase (cpm) ([1]; pH 2.55): 19 cpm
Activity in aqueous phase (cpm) ([1]; pH 2.75): 3121 cpm
Activity in organic phase (cpm) ([1]; pH 2.75): 23 cpm
Activity in aqueous phase (cpm) ([1]; pH 3.45): 3379 cpm
Activity in organic phase (cpm) ([1]; pH 3.45): 22 cpm
Activity in aqueous phase (cpm) ([1]; pH 4.29): 3491 cpm
Activity in organic phase (cpm) ([1]; pH 4.29): 10 cpm
